The experiment is described as follows: qHTS Assay for Lipid Storage Modulators in Drosophila S3 Cells.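 As to cell number change: cells counted by Cell Tracker Red CMTPX staining in the red channel.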 Particulars: BODIPY lipid droplet fluorescence, 18-24 h; for cell number change: measured here: cell count max response, cells fed with added oleic acid. The essentials: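 Drosophila S3 cells loaded with oleic acid (400 uM, as added) and compounds at several concentrations; lipid droplets imaged by 488-nm laser-scanning cytometry, 500–530 nm intensity and object ratio to cell channel. Percent activity normalized to 20 uM Triacsin C.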
For orientation: qHTS replaces the single test concentration by a dilution series.

The mark [1] stands for this setting: measured here: cell number channel AC50, cells fed with added oleic acid.
The mark [2] stands for this setting: measured here: lipid fluorescence (Fed channel) AC50, cells fed with added oleic acid.

From PubChem BioAssay AID2685 (National Center for Advancing Translational Sciences (NCATS), 2010) come the findings set out here.

This is one part of the list. Shown are side measurements of this screen, not its main read-out; they come without a call. Compounds called inactive in the main read-out are mostly missing here. Words in brackets tell the shape of the fitted curve; partial curves, single points and poor fits give uncertain potencies.

As usually defined, the AC50 is the midpoint of the concentration-response curve, whichever way the signal moves. In the case of `Nc1nc(SCC(=O)Nc2ccccc2Sc2ccccc2)n[nH]1`, under setting [1], the half-maximal activity concentration (AC50) is 0.231 µM [rising, full curve, poor fit].

In the case of `O=C(/C=C/c1ccc(F)cc1)Nc1cccc(S(=O)(=O)Nc2cccc(C(F)(F)F)c2)c1`, the cell number change was -30.8%. In addition, under setting [1], the AC50 was 16.4 µM [falling, single point]. Further, the concentration at half-maximal activity (AC50) under setting [2] is 29.1 µM [falling, single point]. As to `C(=N\N1CCN(c2ccccn2)CC1)/C1=C(N2CCOCC2)C(=C/c2ccccc2)/CC1`, the cell number change is -25.9%. Besides, the AC50 under setting [2] was 6.51 µM [falling, full curve, poor fit]. Consider `Cc1ccc(C)c(N2CCN(C(=S)Nc3ccc4nc(N5CCN(C)CC5)cc(C)c4c3)CC2)c1`, for which the cell number change was -31%. Besides, the AC50 under setting [1] is 4.11 µM [falling, full curve]. Moreover, the AC50 under setting [2] is 3.66 µM [falling, full curve, poor fit]. For `Cc1ccc(C[n+]2cccc(-c3ccccc3)c2)c(C)c1`, the cell number change was -0.201%. For the same compound, the half-maximal activity concentration (AC50) under setting [2] was 18.4 µM [falling, single point].

As for `Cc1nnc(NC(=O)CSc2nc(C(C)C)nc3sc(C)c(C)c23)s1`, the cell number change is -5.75%. In addition, the AC50 under setting [2] was 32.6 µM [falling, single point]. For the compound `CC(C)C/C=C1\CCc2c([nH]c3ccccc23)C1=O`, the cell number change was determined as 5.04%. In addition, the AC50 under setting [2] is 29.1 µM [rising, single point]. On to `O=C(c1cccc(Cl)c1)N1CCN(CCCc2ccccc2)CC1`, for which the cell number change was -0.699%. In addition, the AC50 under setting [2] was 0.00461 µM [rising, full curve, poor fit]. Consider `O=C(c1cc(-c2ccc(Cl)c(Cl)c2)on1)N1CCCC1`, for which the cell number change is -40.4%. In addition, the AC50 under setting [1] is 29.1 µM [falling, single point]. Regarding `CN(CC(=O)Nc1ccc(Cl)c(C(F)(F)F)c1)C(=O)CCNC(=O)c1ccco1`, the cell number change amounted to 100%. Moreover, under setting [1], the AC50 was 4.11 µM [rising, partial curve]. As to `O=[N+]([O-])/C=C/c1cn(Cc2ccccc2)c2ccccc12`, the AC50 under setting [2] was 29.1 µM [falling, single point]. Consider `Cc1cc(C(=O)CSc2nc(N)cc(N)n2)c(C)n1-c1cccc(F)c1`, for which the cell number change stood at 2.04%. Also, under setting [2], the AC50 is 2.31 µM [rising, single point]. As for `N#Cc1c(NC(=O)c2ccc(Cn3cc(Br)cn3)o2)sc2c1CCCCCC2`, the AC50 under setting [2] was 29.1 µM [falling, partial curve]. In the case of `O=C1c2ccccc2C(=O)N1CCN1CCCCC1`, the cell number change stood at 10.7%. In addition, the AC50 under setting [2] is 23.1 µM [falling, single point].

With `CNC(=O)c1c(NC(=O)c2ccc(S(=O)(=O)N3CCCCC3)cc2)sc2c1CCN(C(C)C)C2`, the cell number change is -40.1%. For the same compound, the AC50 under setting [1] is 20.6 µM [falling, partial curve, poor fit]. In addition, the AC50 under setting [2] is 6.51 µM [falling, single point]. As for `CCOc1ccc(OCC)c(NC(=O)CSc2nc3c(c(=O)n(C)c(=O)n3C)n2C)c1`, the half-maximal activity concentration (AC50) under setting [2] is 0.259 µM [rising, full curve, poor fit]. For the compound `COc1ccc(C(=O)C2CCCN(Cc3c(F)ccc(F)c3F)C2)c(OC)c1` (stereo unspecified), the cell number change is -34.4%. Further, the AC50 under setting [1] is 9.2 µM [falling, partial curve, poor fit]. `CCOC(=O)Cn1nc(NC(=O)COc2ccc(F)cc2)cc1C`: the cell number change is 6.35%. As for `CCc1ccc(NC(=O)COC(=O)CCc2nc3cc(S(=O)(=O)N(CC)CC)ccc3n2C)cc1`, the cell number change was 11.2%. The AC50 under setting [2] was 6.51 µM [rising, partial curve, poor fit]. On to `CC(=O)NC1C(OC(=O)/C=C/c2ccccc2)OC(COC(C)=O)C(OC(C)=O)C1OC(C)=O` (stereo unspecified), for which the cell number change came to 4.72%. Besides, the half-maximal activity concentration (AC50) under setting [2] is 6.51 µM [rising, single point]. With `CC(C)CN(C(=O)c1ccc(C(F)(F)F)cc1)c1c(N)n(CC(C)C)c(=O)[nH]c1=O`, the cell number change is 2.08%. Consider `COCc1c(C(=O)N/N=C/c2ccncc2)nnn1-c1nonc1N`, for which the cell number change worked out at 13.9%. For the compound `COC(=O)c1ccccc1NC(=O)C1CCCN(S(=O)(=O)c2ccccc2)C1` (stereo unspecified), the cell number change is -9.38%. Besides, under setting [2], the AC50 was 0.00461 µM [rising, full curve, poor fit].

`CCOC(=O)CN(C(=O)CSc1nnc2c(n1)[nH]c1ccccc12)c1ccccc1`: the cell number change is -92.9%. For the same compound, under setting [1], the AC50 is 2.91 µM [falling, full curve]. Under setting [2], the AC50 is 5.8 µM [falling, full curve]. Take `Cc1nn2c(N3CCCC3)c3c(nc2c1-c1ccccc1)CCC3`: the cell number change was 11.8%. For the same compound, under setting [2], the AC50 was 6.51 µM [rising, single point]. Regarding `CCCCCn1c(CN2CC(C)OC(C)C2)nc2c1c(=O)n(C)c(=O)n2C` (stereo unspecified), the cell number change was 61.8%. Moreover, the concentration at half-maximal activity (AC50) under setting [1] was 29.1 µM [rising, single point]. Besides, the AC50 under setting [2] is 0.731 µM [rising, single point].

As to `CCOc1cc(CNCC(C)C)cc(Cl)c1OCc1ccccc1`, the cell number change came to 24.8%. Besides, under setting [2], the AC50 was 7.31 µM [rising, partial curve]. Take `Cc1cccc(Oc2ccc(NC(=O)C3=CC=CN4CCS(=O)(=O)N=C34)cc2)c1`: the cell number change turned out to be 26.8%. The AC50 under setting [2] was 0.0326 µM [rising, full curve, poor fit].

Consider `Cc1ccc(Oc2ccccc2NC(=O)CSCC(=O)Nc2cc(C)on2)cc1`, for which the cell number change amounted to 3.72%. Further, the AC50 under setting [2] is 18.4 µM [falling, single point]. For the compound `CCC1(CC)NC(=O)N(CC(=O)OCC(=O)c2cc(C)c(C)cc2C)C1=O`, the cell number change was determined as 52.6%. The AC50 under setting [1] was 18.4 µM [rising, single point]. As for `COc1ccccc1OCC(=O)Nc1ccccc1C(=O)NC1CC1`, the AC50 under setting [2] was 0.13 µM [rising, full curve]. `Cc1ccc(C(=O)/C=C/c2ccco2)c(O)c1`: the cell number change was -30.6%. Also, the AC50 under setting [1] was 32.6 µM [falling, single point]. The AC50 under setting [2] is 32.6 µM [falling, single point]. In the case of `O=[N+]([O-])c1cc([N+](=O)[O-])c(Oc2ccc(F)cc2)cc1NN1CCCCC1`, the cell number change turned out to be 41.1%. In the case of `Cc1ccc(OCC(=O)Nc2ccc(N3CCN(C(=O)c4ccc(C)cc4)CC3)cc2)cc1`, the cell number change turned out to be 14.2%. For the same compound, under setting [2], the AC50 is 18.4 µM [rising, partial curve, poor fit]. On to `Fc1ccc(-c2noc(C3CCN(Cc4cccnc4)CC3)n2)cc1`, for which the cell number change is -1.56%. Moreover, the AC50 under setting [1] was 1.84 µM [rising, partial curve, poor fit]. Moreover, the AC50 under setting [2] was 0.259 µM [rising, full curve, poor fit].

Consider `COc1cccc2c(=O)n(CC(=O)Nc3ccccc3)ccc12`, for which, under setting [2], the AC50 is 0.13 µM [falling, full curve].

For the compound `COc1ccc(-n2nc(C(=O)NCC(=O)N3CCC(C)CC3)c3ccccc3c2=O)c(OC)c1`, the cell number change came out at 17.6%. For the same compound, the AC50 under setting [2] is 29.1 µM [rising, single point]. Consider `Cc1cccc(OC(=O)c2ccncc2)c1C`, for which the cell number change was -3.42%. For the same compound, the AC50 under setting [1] is 3.66 µM [falling, single point]. Consider `Cc1ccc(S(=O)(=O)Nc2cc(S(=O)(=O)N3CCOCC3)ccc2NCC2CCCO2)cc1` (stereo unspecified), for which the cell number change was determined as 16.4%. In addition, under setting [2], the AC50 was 7.31 µM [rising, single point].

As for `Cc1cccc(-c2nnc(SCC(=O)N3c4ccccc4CCc4ccccc43)n2C)c1`, the cell number change came out at 24.8%. Also, the concentration at half-maximal activity (AC50) under setting [1] was 0.82 µM [rising, full curve, poor fit]. In addition, under setting [2], the AC50 was 3.66 µM [rising, partial curve]. In the case of `COc1ccccc1[C@@]1(C)ON(c2ccccc2C(F)(F)F)C1=O`, the cell number change was -42.5%. The AC50 under setting [1] was 0.82 µM [falling, full curve]. In addition, the AC50 under setting [2] was 1.03 µM [falling, full curve].

On to `COc1ccc(OCC(=O)N/N=c2\oc3c(OC)cccc3cc2C(N)=O)cc1`, for which the cell number change turned out to be 2.39%. For the same compound, under setting [2], the AC50 was 0.0206 µM [falling, full curve, poor fit]. For `O=C(CSc1nnc(-c2ccncc2)o1)Nc1cccc(F)c1`, the cell number change was -4.73%. Also, the AC50 under setting [2] was 23.1 µM [rising, partial curve, poor fit].

Take `CCn1c2ccccc2c2cc(NC(=O)COC(=O)c3ccccc3F)ccc21`: the cell number change was -10.1%. Further, the AC50 under setting [1] is 6.51 µM [falling, single point]. Regarding `CC(C)(C)c1cc(NC(=O)CCl)n(-c2ccccc2)n1`, the cell number change was -1.59%. Besides, the concentration at half-maximal activity (AC50) under setting [2] is 14.6 µM [falling, partial curve, poor fit].

On to `O=C(NCc1ccccn1)c1cccc(NS(=O)(=O)c2cccc(Cl)c2)c1`, for which the cell number change was found to be 43%. Moreover, the AC50 under setting [1] is 20.6 µM [rising, single point]. Further, under setting [2], the AC50 is 20.6 µM [rising, single point]. For `Cc1nc(C)c(C(=O)NCc2ccccc2Cl)o1`, under setting [2], the AC50 was 25.9 µM [falling, partial curve, poor fit].

Take `CCCCC(=O)NC(=S)Nc1cc(C(=O)O)ccc1OC`: the cell number change worked out at 1.59%. The AC50 under setting [2] is 2.91 µM [falling, partial curve]. For the compound `COc1cc(CNCCN2CCOCC2)ccc1OCc1ccc(Cl)cc1`, the cell number change turned out to be 5.51%. Moreover, under setting [2], the concentration at half-maximal activity (AC50) is 0.58 µM [falling, single point]. On to `Cc1cccc(CCNC(=O)C2CCCN(c3cnccn3)C2)c1` (stereo unspecified), for which the cell number change amounted to 12.8%. Consider `CC(=O)c1ccc(NC(=O)CN2CCN(c3ccccc3)CC2)cc1`, for which the cell number change turned out to be 11.2%. For the same compound, the AC50 under setting [2] was 14.6 µM [rising, partial curve]. As for `COC(=O)c1ccccc1CSc1nsc(C)c1C#N`, the concentration at half-maximal activity (AC50) under setting [2] was 11.6 µM [falling, partial curve]. `CC(=O)NC(Cc1cnc[nH]1)C(=O)O` (stereo unspecified): the cell number change worked out at 0.628%. With `CC(C)(Oc1ccc(Cl)cc1)C(=O)Nc1ccc(S(=O)(=O)Nc2ncccn2)cc1`, the cell number change was found to be 25.7%. Consider `N[C@@H](Cc1ccccc1)c1nnc(SC/C=C/c2ccccc2)o1`, for which the cell number change was 56.1%. Moreover, the AC50 under setting [1] was 9.2 µM [rising, partial curve]. Moreover, the half-maximal activity concentration (AC50) under setting [2] was 0.731 µM [rising, single point]. As for `O=C(N/N=C/c1ccco1)c1cc(-c2ccccc2)nc2ccccc12`, the AC50 under setting [2] was 14.6 µM [falling, partial curve].

For the compound `Cc1c(C(=O)N2CCN(c3ccc(C(F)(F)F)cn3)CC2)oc2ccccc12`, the cell number change was 1.38%. For the same compound, the AC50 under setting [2] is 0.0058 µM [rising, full curve, poor fit]. As to `O=C(COc1ccccc1F)NCC(c1ccco1)N1CCCC1` (stereo unspecified), the cell number change stood at 30.8%. Besides, under setting [1], the AC50 is 7.31 µM [rising, partial curve, poor fit].
